Data from PubChem BioAssay AID540275 (National Center for Advancing Translational Sciences (NCATS), 2011).
Screen size: about 320,000 compounds; about 620 (0.19%) were called active. This list was built around the results that the source calls inconclusive (neither active nor inactive); the mix of calls is not that of the screen. Cut-off read from the data, not from the text of the source: active = activation above about 80%; inconclusive = between about 30% and that limit; inactive = weaker than that.

Sequences of proteins named here, by UniProt entry; tags and fusion partners are left off.
UniProt Q8NER1, whole entry, looked up: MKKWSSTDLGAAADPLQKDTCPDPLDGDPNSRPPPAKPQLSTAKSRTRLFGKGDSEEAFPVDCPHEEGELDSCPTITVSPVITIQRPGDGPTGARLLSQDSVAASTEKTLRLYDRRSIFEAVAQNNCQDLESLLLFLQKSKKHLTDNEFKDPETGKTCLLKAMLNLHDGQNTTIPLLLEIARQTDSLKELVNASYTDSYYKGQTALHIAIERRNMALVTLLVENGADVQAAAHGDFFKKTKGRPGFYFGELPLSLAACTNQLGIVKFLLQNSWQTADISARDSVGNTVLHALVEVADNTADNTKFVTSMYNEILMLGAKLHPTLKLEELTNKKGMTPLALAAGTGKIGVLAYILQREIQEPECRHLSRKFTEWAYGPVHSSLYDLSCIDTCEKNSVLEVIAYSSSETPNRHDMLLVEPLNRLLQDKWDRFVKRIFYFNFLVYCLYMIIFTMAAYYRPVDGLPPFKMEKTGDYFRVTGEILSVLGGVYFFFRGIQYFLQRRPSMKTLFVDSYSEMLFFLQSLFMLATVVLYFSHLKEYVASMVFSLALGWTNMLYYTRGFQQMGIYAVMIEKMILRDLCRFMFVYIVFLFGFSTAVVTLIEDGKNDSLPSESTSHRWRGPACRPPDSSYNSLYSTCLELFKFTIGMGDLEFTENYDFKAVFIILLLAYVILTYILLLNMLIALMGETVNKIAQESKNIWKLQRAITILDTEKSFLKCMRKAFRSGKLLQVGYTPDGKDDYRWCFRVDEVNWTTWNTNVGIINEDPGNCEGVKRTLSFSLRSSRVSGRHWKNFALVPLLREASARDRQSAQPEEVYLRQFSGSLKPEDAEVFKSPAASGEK

What follows are molecules tested against Transient receptor potential cation channel subfamily V member 1 (Homo sapiens) (UniProt Q8NER1) (assay: HTS Assay for Compounds that Act as Agonists of the Vanilloid Receptor 1). Settings: TRPV1-expressing cells, Fluo-8 calcium influx, agonist mode; at 8.33 µM, hits give high values.
Procedure, shortened: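 Fluo-8 calcium influx in TRPV1-expressing cells, kinetic read (ex 480/em 520 nm). Compound added and read 3 min for agonist activity, followed by capsaicin at EC20 final and 2 min further read for enhancement.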
Note: 0% is about no effect.

| Structure (SMILES) | activation |
| --- | --- |
| COc1cccc(C2=CC(c3ccc(OC)c(OC)c3)NC(=S)N2)c1 (stereo not drawn) | inactive: 0.12% |
| CCN1CSC(=S)N(Cc2ccccc2)C1 | inactive: 3.76% |
| Cc1csc(C2=C(O)CN(CCc3ccccc3)C2=N)n1 | inconclusive: 31.3% |
| O=C(Nc1ccc(Cl)cc1)N1CCCC(Cn2cccc2)C1 (stereo not drawn) | inconclusive: 59.8% |
| O=C(c1cc2ccccn2n1)N1CCN(c2cccc(C(F)(F)F)c2)CC1 | inconclusive: 79.8% |
| CC(C)c1ccc(OCc2cccc(C(=O)N/N=C/c3cccnc3)c2)cc1 | inconclusive: 58.5% |
| Cc1ccc(NC(=S)N/N=C2\CCCCC2C)cc1 (stereo not drawn) | inactive: 0.621% |
| COc1ccc(CCC(=O)N2CCCC(Nc3ccccc3)C2)cc1OC (stereo not drawn) | inconclusive: 68.2% |
| COc1cccc(NC(=O)NCCc2ccc(Cl)cc2)c1 | inconclusive: 50.8% |
| O=C(OCCCN=C1NS(=O)(=O)c2ccccc21)c1ccc([N+](=O)[O-])cc1 | inconclusive: 33.8% |
| O=C1CC(N(CCc2ccccc2)C(=S)Nc2cc(Cl)ccc2Cl)C(=O)N1c1c(Cl)cccc1Cl (stereo not drawn) | inactive: 3.94% |
| CCCN(CCC)c1nc2ccccc2nc1C(C#N)C(=O)OCCOC (stereo not drawn) | inconclusive: 55.7% |
| O=C(/C=C/c1ccc(Cl)cc1)NCc1ccncc1 | active: 81.5% |
| Cc1onc(-c2ccccc2)c1C(=O)Nc1ccncc1 | inactive: -1.14% |
| S=C(NCCc1ccc(Cl)cc1)NC1CC1 | inconclusive: 44.3% |
| Cc1ccc(C(=O)CNc2ccc(C)cc2C)cc1 | inconclusive: 38.8% |
| CC(=O)Nc1ccc(N2CCCC(C)C2)c([N+](=O)[O-])c1 (stereo not drawn) | inactive: 22.8% |
| C=CCc1c(C)nc(SCc2ccccc2)[nH]c1=O | inactive: -0.491% |
| O=C(/C=C/c1cccs1)Nc1ccc([N+](=O)[O-])cc1 | inconclusive: 60.8% |
| O=C(CN(c1ccc(Cl)c(Cl)c1)S(=O)(=O)c1ccccc1)N1CCc2ccccc2C1 | inconclusive: 43.8% |
| COC(C(=O)Nc1ccc(F)cc1)c1ccccc1 (stereo not drawn) | inactive: -1.74% |
| COc1ccc2oc(C(=O)N3CCN(C(=O)c4ccco4)CC3)c(C)c2c1 | inconclusive: 32.2% |
| CC(C)c1nc(SCC(=O)NC2CCCCC2)c2ccccc2n1 | inconclusive: 35.9% |
| O=C(Nc1ccc(N2CCN(C(=O)c3ccccc3)CC2)cc1)c1ccc(Br)o1 | inactive: 16% |

| Structure (SMILES) | activation |
| --- | --- |
| CC1(C(=O)NC(=S)N(CCC#N)Cc2cccnc2)CC1(Cl)Cl (stereo not drawn) | inactive: 0.781% |
| CC(C)(C)c1ccc(NC(=O)Nc2ccc(F)cc2)cc1 | inconclusive: 52.3% |
| CC(=O)c1cccc(NC(=O)C(C)OC(=O)c2ccc(Br)o2)c1 (stereo not drawn) | inconclusive: 41.4% |
| Cc1ccc(C(=O)OCC(=O)N2CCC(C)CC2)cc1S(=O)(=O)N1CCCCC1 | inconclusive: 41.4% |
| Cc1ccc(NC(=O)COC(=O)C2(c3ccc(Cl)cc3)CCCC2)cc1 | inconclusive: 33.4% |
| O=C(NCCc1ccc(F)cc1)c1ccncc1 | inconclusive: 31.2% |
| CCOC(=O)c1ccc(Nc2ncnc3ccc(C)cc23)cc1 | inconclusive: 57.1% |
| Cc1ccc(S(=O)(=O)NC2CCCCCCC2)cc1 | inactive: 2.03% |
| COc1cccc(-c2ccc3ncnc(NCc4cccc(C)c4)c3c2)c1 | inconclusive: 46.7% |
| O=[N+]([O-])c1ccccc1CN1CCN(S(=O)(=O)Cc2ccccc2)CC1 | inactive: -10.5% |
| CC1(C)CC(=O)C(N=Nc2ccc(F)cc2)=C(O)C1 | inactive: -0.0886% |
| Cc1nc(=S)c2ccccc2[nH]1 | inactive: -4.12% |
| O=C(c1ccc(COc2ccccc2Cl)o1)N1CCOCC1 | inconclusive: 33.5% |
| CC(=O)c1ccc(N2CCN(C(=O)C3CCC3)CC2)cc1 | inconclusive: 49.6% |
| CC1(C)CC(=O)C(C(N)=NC(=O)c2ccccc2)=C(O)C1 | inconclusive: 39.4% |
| Cc1ccc(S(=O)(=O)N(C)c2cc(S(=O)(=O)N3CCC(C)CC3)c(C)cc2C)cc1 | inconclusive: 51.6% |
| CC(C)(C)c1cc(CCC(=O)NCc2ccncc2)cc(C(C)(C)C)c1O | active: 91.3% |
| CCOC(=O)C1(CCCc2ccccc2)CCN(C(=O)CCCn2cncn2)CC1 | inconclusive: 34% |
| COc1ccc2nc(-c3ccccn3)[nH]c2c1 | inactive: 2.19% |
| N#Cc1ccc(OCC(O)CN2CCN(c3ncc(C(F)(F)F)cc3Cl)CC2)cc1 (stereo not drawn) | inactive: 0.728% |
| O=C(Nc1nc2ccccc2s1)c1ccc([N+](=O)[O-])o1 | inconclusive: 32% |
| COc1ccccc1-c1cc(C(=O)NC(C)c2ccccc2)no1 (stereo not drawn) | inconclusive: 39.1% |
| Cc1cccc(/C=C/c2onc(C)c2S(=O)(=O)N2CCC(C(=O)NC(C)(C)C)CC2)c1 | inconclusive: 41.6% |
| CC(=O)NCCOc1cccc2ccccc12 | inactive: -4.21% |

Not a retest: 26 of the compounds above.

| Structure (SMILES) | activation |
| --- | --- |
| O=C1CC(N(CCc2ccccc2)C(=S)Nc2cc(Cl)ccc2Cl)C(=O)N1c1c(Cl)cccc1Cl (stereo not drawn) | inactive: 3.94% |
| CCCN(CCC)c1nc2ccccc2nc1C(C#N)C(=O)OCCOC (stereo not drawn) | inconclusive: 55.7% |
| O=C(/C=C/c1ccc(Cl)cc1)NCc1ccncc1 | active: 81.5% |
| Cc1onc(-c2ccccc2)c1C(=O)Nc1ccncc1 | inactive: -1.14% |
| S=C(NCCc1ccc(Cl)cc1)NC1CC1 | inconclusive: 44.3% |
| Cc1ccc(C(=O)CNc2ccc(C)cc2C)cc1 | inconclusive: 38.8% |
| CC(=O)Nc1ccc(N2CCCC(C)C2)c([N+](=O)[O-])c1 (stereo not drawn) | inactive: 22.8% |
| C=CCc1c(C)nc(SCc2ccccc2)[nH]c1=O | inactive: -0.491% |
| O=C(/C=C/c1cccs1)Nc1ccc([N+](=O)[O-])cc1 | inconclusive: 60.8% |
| O=C(CN(c1ccc(Cl)c(Cl)c1)S(=O)(=O)c1ccccc1)N1CCc2ccccc2C1 | inconclusive: 43.8% |
| COC(C(=O)Nc1ccc(F)cc1)c1ccccc1 (stereo not drawn) | inactive: -1.74% |
| COc1ccc2oc(C(=O)N3CCN(C(=O)c4ccco4)CC3)c(C)c2c1 | inconclusive: 32.2% |
| CC(C)c1nc(SCC(=O)NC2CCCCC2)c2ccccc2n1 | inconclusive: 35.9% |
| O=C(Nc1ccc(N2CCN(C(=O)c3ccccc3)CC2)cc1)c1ccc(Br)o1 | inactive: 16% |
| CC1(C(=O)NC(=S)N(CCC#N)Cc2cccnc2)CC1(Cl)Cl (stereo not drawn) | inactive: 0.781% |
| CC(C)(C)c1ccc(NC(=O)Nc2ccc(F)cc2)cc1 | inconclusive: 52.3% |
| CC(=O)c1cccc(NC(=O)C(C)OC(=O)c2ccc(Br)o2)c1 (stereo not drawn) | inconclusive: 41.4% |
| Cc1ccc(C(=O)OCC(=O)N2CCC(C)CC2)cc1S(=O)(=O)N1CCCCC1 | inconclusive: 41.4% |
| Cc1ccc(NC(=O)COC(=O)C2(c3ccc(Cl)cc3)CCCC2)cc1 | inconclusive: 33.4% |
| O=C(NCCc1ccc(F)cc1)c1ccncc1 | inconclusive: 31.2% |
| CCOC(=O)c1ccc(Nc2ncnc3ccc(C)cc23)cc1 | inconclusive: 57.1% |
| Cc1ccc(S(=O)(=O)NC2CCCCCCC2)cc1 | inactive: 2.03% |
| COc1cccc(-c2ccc3ncnc(NCc4cccc(C)c4)c3c2)c1 | inconclusive: 46.7% |
| O=[N+]([O-])c1ccccc1CN1CCN(S(=O)(=O)Cc2ccccc2)CC1 | inactive: -10.5% |
| CC1(C)CC(=O)C(N=Nc2ccc(F)cc2)=C(O)C1 | inactive: -0.0886% |
| Cc1nc(=S)c2ccccc2[nH]1 | inactive: -4.12% |

(continued)

| Structure (SMILES) | activation |
| --- | --- |
| O=C(COc1ccc(C(=O)c2ccccc2)cc1)NCc1ccc(F)cc1 | inconclusive: 57.3% |
| CC(C)(C)NC(=O)C(c1ccccn1)N(C(=O)c1ccc2c(c1)OCCO2)C1CCCC1 (stereo not drawn) | inconclusive: 45.6% |
| CC(C)(C)NC(=O)N1CCN(c2nc(-c3ccccc3)ns2)CC1 | inconclusive: 39.6% |
| Cc1ccc2nc(-c3cccnc3)c(NC3CCCC3)n2c1 | inconclusive: 44% |
| CC(/C=N/Nc1nc(C)cc(=O)[nH]1)=C\c1ccccc1 | inconclusive: 35.4% |
| O=C(c1ccccn1)N1CC=C(c2ccccc2)CC1 | inconclusive: 34.1% |
| CCc1ccc(/C=C2/SC(=S)N(CCCC(=O)Nc3ccccc3C(=O)O)C2=O)cc1 | inactive: -2.58% |
| C=CCOC(=O)C1=C[C@@H](C2CCCCC2)C[C@@H](OCc2ccc(CO)cc2)O1 | inconclusive: 73% |
| Cc1ccc(/C=N/NC(=O)c2csc3c2CCCC3)cc1 | inconclusive: 56.6% |
| Cc1ccc(/C=C/c2nc3ccccc3c(=O)n2CCc2ccccc2)cc1 | inconclusive: 32.5% |
| O=C(Nc1ccncc1NC(=O)c1cccc([N+](=O)[O-])c1)c1cccc([N+](=O)[O-])c1 | inactive: 0.39% |
| Cc1ccc(SCC(=O)Nc2cccc(C)c2)cc1 | inconclusive: 63.6% |
| COc1cc(/C=C/C(=O)OCC(=O)N2CCC(Cc3ccccc3)CC2)ccc1O | inconclusive: 35.4% |
| C=CCn1c(-c2cccn(Cc3cccc(Cl)c3)c2=O)n[nH]c1=S | inactive: -4.63% |
| Cc1ccc(C(=O)N2CCN3C(=O)c4ccccc4C23c2ccc(Cl)cc2)cc1 (stereo not drawn) | inactive: 12.8% |
| CC(C)(C)c1ccc(NC(=O)c2ccsc2)cc1 | active: 83.1% |
| O=C(COc1ccc(Cl)cc1)NCc1ccc(F)cc1 | inconclusive: 61.2% |
| Cc1ccc2[nH]c(=O)c(CN(C(=O)c3cccc([N+](=O)[O-])c3)C(C)(C)C)cc2c1 | inconclusive: 32.3% |
| COc1ccc(C2SCCN2C(=S)Nc2ccc(Cl)cc2)cc1 (stereo not drawn) | inactive: 1.6% |
| CC(C)c1ccc(C(C)NC(=O)C2CCCC2)cc1 (stereo not drawn) | inconclusive: 50.4% |
| COCCN(CCOC)c1nc(S(=O)(=O)c2ccc(C)cc2)c(Cl)s1 | inconclusive: 33.5% |
| CC(=O)C1=C(O)C(=O)N(CCCn2ccnc2)C1c1ccc(Br)cc1 (stereo not drawn) | inactive: -0.92% |
| CC1=Nc2cc(C(=O)N3CCCCC3)ccc2Sc2ccc(C)cc21 | inconclusive: 39.9% |
| O=C(Nc1ccccc1)c1ccccc1NC(=O)C1CCCCC1 | inconclusive: 35.7% |

| Structure (SMILES) | activation |
| --- | --- |
| O=C(NN=C1CCCCCCC1)c1ccc2ccccc2n1 | inconclusive: 34% |
| CCOc1ccccc1N1CCN(C(=O)Nc2ccc(Cl)c(Cl)c2)CC1 | inconclusive: 76.1% |
| O=C(NCc1cccnc1)c1cc(Sc2ccccc2Cl)nc2ccccc12 | inconclusive: 38.9% |
| O=C(NCc1ccc(F)cc1)c1nc(-c2cccs2)no1 | inconclusive: 36.9% |
| Cc1ccc2nc(SCc3nnc(-c4cccs4)o3)[nH]c2c1 | inactive: 5.12% |
| CCCCNC(=S)N(Cc1c(C)noc1C)c1ccccc1 | inconclusive: 30.3% |
| CC(C)n1c(-c2ccco2)csc1=Nc1cccnc1 | inactive: 2.99% |
| Cc1ccc(SCCC(=O)Nc2cc(C)on2)cc1 | inconclusive: 30.3% |
| CCOc1ccc(S(=O)(=O)N2CCCC(C(=O)NCC3CCCO3)C2)cc1 (stereo not drawn) | inactive: 0.983% |
| Cc1ccc2c(CN3CCN(Cc4ccccc4)CC3)cc(=O)oc2c1 | inactive: 6.23% |
| Cc1ccc(NC(=O)C2CCCN(c3ncnc4c3nc3n4CCCCC3)C2)cc1Cl (stereo not drawn) | inconclusive: 38.3% |
| Cc1cccc(/C=N/NC(=O)c2ccc(NC(=O)c3ccc(F)cc3)cc2)n1 | inconclusive: 69.1% |
| N#Cc1c(NC(=O)c2ccc(Cn3cc(Br)cn3)o2)sc2c1CCCCC2 | inconclusive: 55.4% |
| O=C(Nc1nc(-c2cc(Cl)sc2Cl)cs1)c1cccs1 | inconclusive: 62.9% |
| CC(=O)NCCC(=O)Nc1cc(S(=O)(=O)N2CCOCC2)ccc1Oc1ccc(F)cc1 | inactive: -0.0227% |
| O=c1c2c(nc3n1CCCCC3)sc1c(O)c(Br)ccc12 | inactive: -2.15% |
| COc1ccc(OC)c(-c2csc(NC(=O)Cc3ccc(OC)c(OC)c3)n2)c1 | inconclusive: 78.1% |
| S=c1[nH]nc(COc2ccc(Cl)cc2)n1-c1ccc(Cl)cc1 | inactive: 0.912% |
| O=C(COC(=O)c1ccc([N+](=O)[O-])s1)NCc1ccccc1 | inconclusive: 31.5% |
| CCOC(=O)c1cc(C)sc1NC(=O)CN1CCN(C(=O)C2CCCO2)CC1 (stereo not drawn) | inactive: 1.77% |
| CC(C)Nc1oc(Cc2cccc3ccccc23)nc1C#N | inconclusive: 32.9% |
